In the supplement of paper PMC3334620:
The full ranking holds about 33,000 sequences; the median of “E-score (-0.5 to 0.5)” is about -8e-05, and the highest 2% start at about 0.23. The list shows a part of the results.

target: T1, Nrg2 (UniProt P38082); test: PBM E-score (8-mer binding enrichment) (E-score (-0.5 to 0.5)); higher = stronger / more preferred TF binding; settings: protein concentration: 100 nM; construct: GST-full length
T1 sequence: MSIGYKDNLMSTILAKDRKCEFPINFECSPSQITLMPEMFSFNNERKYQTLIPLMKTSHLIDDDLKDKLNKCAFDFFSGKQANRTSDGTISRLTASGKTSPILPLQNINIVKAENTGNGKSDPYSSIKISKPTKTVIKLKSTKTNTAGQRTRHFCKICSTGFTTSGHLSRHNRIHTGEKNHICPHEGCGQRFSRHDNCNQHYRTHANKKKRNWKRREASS
Description: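 Universal 'all 10-mer' protein binding microarrays (Agilent AMADID 015681) probed with GST-tagged S. cerevisiae TFs (full-length or DBD) made by in vitro transcription/translation (PURExpress), about 100-200 nM. Bound TF was detected with fluorescent anti-GST. Each ungapped 8-mer (which stands for itself and its reverse complement) is scored by the PBM enrichment score (E-score), a modified Wilcoxon-Mann-Whitney statistic from -0.5 to +0.5, computed with the Universal PBM Analysis Suite. Scale: above 0.35 generally sequence-specific binding.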

Sequence | PBM E-score
GTTGTAGA | -0.053
AAGCAGAT | 0.114
CGTGTCTC | -0.14
ACGATACC | 0.0391
ATGTCACC | -0.0166
TGCGATAA | 0.209
CGTACACA | -0.0246
CCTTCCTC | -0.262
CACTAACG | -0.142
CGGTAAAA | 0.0792
GACCTGCC | -0.0689
GAATATTC | 0.24
GCGTGACC | 0.00224
CACAGAGA | 0.0268
AAGCCCAA | -0.122
CAACCGGA | -0.0402
CAATCTAG | -0.0575
AACGTGGC | -0.00648
CGATCCGC | 0.0427
ACTCGGGA | -0.0463
AGTATTAC | -0.0315
AGTTACTG | 0.0449
CCCTCAGG | 0.0483
ATGATGTC | 0.0758
ACTGAAAT | 0.038

Sequence | PBM E-score
AGAAATGG | 0.0198
CCTGGCTA | -0.156
CAGGAGTC | 0.0361
CACAAGGC | -0.153
TGAGCTCA | 0.155
AATGTCCG | 0.0594
AGACTGGA | -0.0653
CACATGTG | 0.0391
CATCAACA | 0.15
AACAAAAC | 0.131
ACCGACTG | -0.0866
ATAACAGA | 0.0725
CAGTAGGA | -0.0996
CACCGGTC | -0.373
AGGGTTGA | 0.03
AAATCCTT | -0.00642
TACCGGCA | -0.0644
CCCGGGCA | -0.111
CTCGAATC | -0.0229
AGACCGGG | -0.0868
ACGCAAGG | 0.0308
CATGTCCG | -0.116
AGCGCTAG | -0.126
CTACCTCA | -0.118
CCTTCAGA | -0.132

Sequence | PBM E-score
CCGGACGA | -0.0224
CACACGCG | 0.112
AATCTTCC | -0.09
GAGATTCC | 0.086
AGAAGTCT | -0.196
ATGTTAGG | 0.00988
ATCTAATG | -0.058
CCATTAGA | -0.195
AGAACACC | -0.0968
CACAAACA | -0.0179
CTACATTA | 0.0766
ACACAAGA | 0.0988
ATTACGAC | 0.0725
GAGTCCCA | 0.044
AGTTAGGG | 0.0307
AAACTTAA | 0.0948
CCCGTTCC | -0.00482
AATAGGAG | -0.286
GACGCAGC | -0.095
TAGAAAGA | -0.259
ACTAGGAG | -0.0682
AATTGAAG | -0.127
AGAAGCGC | 0.101
ACTCTTAC | 0.0693
CGGTCCGA | 0.0617

Reprinted at random: four entries already listed.
Sequence | PBM E-score
ATCTAATG | -0.058
CCCGTTCC | -0.00482
AATAGGAG | -0.286
AATCTTCC | -0.09

More entries:

Sequence | PBM E-score
AAGTGTAG | -0.0426
AAAAAGTG | 0.0286
GTGTACGA | -0.0251
ACAAGCAC | -0.129
ATAGTGAT | 0.0828
CCTGAAAA | -0.0155
GCCCAGAC | -0.259
CCGGTCGC | -0.141
AATAAGTA | 0.111
GGGGTTCA | 0.166
AGTCCAAC | 0.0694
ATCTTTCA | 0.131
AGTCTTGC | -0.0127
AGATTTGA | 0.129
GCGCCCTA | -0.021
AAGCCCTT | -0.0684
AGGGGACG | 0.0757
CATACCCA | -0.0106
CTGGTTCA | -0.118
AGAACAAC | -0.028
CGACACTA | 0.0165
CATTTATA | 0.0834
GCCGTGGA | -0.105
ATTATTTC | 0.207
AAGTAATT | 0.0546

Sequence | PBM E-score
AGGCCGTG | 0.00953
CACAACGC | 0.0775
CCTCCCAG | -0.282
CTATCCAG | -0.0187
AGTAGCTA | 0.0901
GAATGCGA | -0.0117
GGTAGCAC | -0.259
GTTTCGGA | -0.0272
AGCATACA | -0.0259
CTCAAGCC | -0.254
CGGTGGAG | -0.163
CGGCCGAA | 0.0577
GAGAGAGC | -0.171
AGCCTTAT | -0.0742
GACGGACA | 0.21
GGGATCAA | -0.0876
ATTGTCTC | 0.0123
TACTGTAA | 0.0495
CGCCATGA | -0.0296
TGAAACCA | 0.157
CAACTCGA | 0.0207
CTATAGTA | 0.152
AGTAGGCG | 0.0694
ACGACTGA | 0.035
ATTTCAAA | 0.00814

Part of the list above, as labelled records:
AGGCCGTG
  PBM E-score: 0.00953
CACAACGC
  PBM E-score: 0.0775
CCTCCCAG
  PBM E-score: -0.282
CTATCCAG
  PBM E-score: -0.0187

The listing continues.

Sequence | PBM E-score
CCTCCGCC | -0.142
GGTGGGAA | -0.0571
AATAGCTG | 0.031
CACGCGCA | -0.0169
CGAGATGC | -0.0121
ATCCTTGA | -0.00132
ATATCAGG | 0.0243
AATTTCCG | 0.206
ACCCTCAA | -0.128
GGGACCCA | -0.00781
AGACGTGA | 0.108
CCGATAGG | 0.0212
AACTGAGC | -0.0554
ATCAATGG | -0.0247
CGTCATGC | 0.0265
GTTTGTGA | -0.00935
AGACATGG | 0.0758
AGGAGAAT | 0.0168
ACTGCCAA | 0.0418
AGTTGATC | 0.137
AGAATATC | 0.153
ACGAACGA | 0.0396
AAGGTCTC | -0.174
ATCTAAAC | -0.091
GCAACGAA | 0.187

Sequence | PBM E-score
AACCCCTG | 0.055
TTCGCAAA | 0.185
AATTGATG | 0.195
ATGACGTC | 0.195
AACAGGTT | -0.129
CAATCAGC | -0.0303
AGTTCATG | 0.216
CATGCGCC | 0.0619
AATTGCAA | 0.0259
CCCAGCGC | -0.0665
AGGTACTG | -0.105
GGGACCAC | 0.146
AGCCGATG | -0.00831
AAATTAAC | 0.198
ACGGAGAT | -0.0589
ATTAGACA | 0.0113
TTTCGAAA | 0.178
TATTACGA | 0.146
CCTCGTTC | -0.0458
AATCCCAA | 0.0283
ATCAAACA | 0.185
ATATTGAT | 0.221
